Measurements taken from PMC11707433.
Results are given in words; binding and its absence hold for the method and conditions named. Binding seen in cells or lysates may run through a third protein. Some entries that bind do so weakly or less than the wild type.

Amino acid sequences for entries named in this document (tags omitted). Residues count along the entry.
UniProt Q08830, residues 23-312: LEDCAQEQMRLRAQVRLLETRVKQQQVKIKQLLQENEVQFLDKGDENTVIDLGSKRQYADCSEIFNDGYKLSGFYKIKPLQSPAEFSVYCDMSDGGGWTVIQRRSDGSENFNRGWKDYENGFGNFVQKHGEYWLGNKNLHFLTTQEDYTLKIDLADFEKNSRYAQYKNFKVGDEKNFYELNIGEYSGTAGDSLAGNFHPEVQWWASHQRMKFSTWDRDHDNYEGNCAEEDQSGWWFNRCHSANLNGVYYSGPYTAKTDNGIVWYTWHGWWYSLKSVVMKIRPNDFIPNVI
UniProt Q9NSP4: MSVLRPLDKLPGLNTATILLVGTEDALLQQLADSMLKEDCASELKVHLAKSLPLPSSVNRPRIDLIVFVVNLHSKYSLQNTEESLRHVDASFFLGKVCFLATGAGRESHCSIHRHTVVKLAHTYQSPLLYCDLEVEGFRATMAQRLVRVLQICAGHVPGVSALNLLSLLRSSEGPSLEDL

Biological target: FGL1 (fibrinogen-like protein 1) (human (endogenous in SW-13)) (UniProt Q08830)
Experiment: co-IP; SW-13 cell lysate (IP lysis buffer) incubated with FGL1 antibody or IgG overnight at 4°C, protein A/G agarose beads 4 h at RT; eluate blotted for CENPM

## CENPM (from UniProt Q9NSP4 1-180)
  binding: binds
